The list shows a part of the results.
compound: CC1Cc2ccccc2N1C(=O)C1CCCN(C1)C(=O)CCl (mixture of isomers) [TRIM25 ligand 11 (diastereomer mixture)]; test: probe-labelled cysteine peptide fold change vs DMSO (competition) (log2 fold change); higher = less target engagement (more negative = stronger competition); conditions: 50 µM; THP-1; incubation time: 4 h
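Also: competitive chemoproteomic profiling in live THP-1 cells with an iodoacetamide desthiobiotin (IA-DTB) probe, comparing probe-labelled peptide intensities in compound-treated cells against DMSO-treated controls.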

Chains of the proteins cited; added tags and fusions are not shown. Lines headed by an entry give the natural chain unless they say otherwise; changes in a name come on top.
UniProt P34932: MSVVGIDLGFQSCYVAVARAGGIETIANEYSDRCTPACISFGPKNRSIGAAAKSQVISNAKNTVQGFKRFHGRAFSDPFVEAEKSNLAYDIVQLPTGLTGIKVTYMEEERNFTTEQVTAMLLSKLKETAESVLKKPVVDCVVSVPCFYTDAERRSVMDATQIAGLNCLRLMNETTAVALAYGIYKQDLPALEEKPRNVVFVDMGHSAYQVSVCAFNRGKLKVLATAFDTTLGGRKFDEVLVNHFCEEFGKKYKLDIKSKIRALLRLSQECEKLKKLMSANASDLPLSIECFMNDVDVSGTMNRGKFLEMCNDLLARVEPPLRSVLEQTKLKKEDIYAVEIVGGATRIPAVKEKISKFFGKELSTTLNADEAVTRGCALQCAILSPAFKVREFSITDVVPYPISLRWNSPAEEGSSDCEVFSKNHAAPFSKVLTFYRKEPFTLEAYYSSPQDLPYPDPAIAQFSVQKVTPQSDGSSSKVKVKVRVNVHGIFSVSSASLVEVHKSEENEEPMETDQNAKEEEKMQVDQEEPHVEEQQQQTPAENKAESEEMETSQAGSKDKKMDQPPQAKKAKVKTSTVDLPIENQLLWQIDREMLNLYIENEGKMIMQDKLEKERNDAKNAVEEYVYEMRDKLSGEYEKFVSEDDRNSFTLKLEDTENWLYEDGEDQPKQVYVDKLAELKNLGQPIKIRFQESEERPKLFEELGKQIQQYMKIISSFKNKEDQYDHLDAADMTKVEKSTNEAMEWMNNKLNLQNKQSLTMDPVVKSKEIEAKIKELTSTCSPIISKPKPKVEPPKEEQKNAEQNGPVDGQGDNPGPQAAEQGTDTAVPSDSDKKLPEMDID
UniProt Q5SSJ5: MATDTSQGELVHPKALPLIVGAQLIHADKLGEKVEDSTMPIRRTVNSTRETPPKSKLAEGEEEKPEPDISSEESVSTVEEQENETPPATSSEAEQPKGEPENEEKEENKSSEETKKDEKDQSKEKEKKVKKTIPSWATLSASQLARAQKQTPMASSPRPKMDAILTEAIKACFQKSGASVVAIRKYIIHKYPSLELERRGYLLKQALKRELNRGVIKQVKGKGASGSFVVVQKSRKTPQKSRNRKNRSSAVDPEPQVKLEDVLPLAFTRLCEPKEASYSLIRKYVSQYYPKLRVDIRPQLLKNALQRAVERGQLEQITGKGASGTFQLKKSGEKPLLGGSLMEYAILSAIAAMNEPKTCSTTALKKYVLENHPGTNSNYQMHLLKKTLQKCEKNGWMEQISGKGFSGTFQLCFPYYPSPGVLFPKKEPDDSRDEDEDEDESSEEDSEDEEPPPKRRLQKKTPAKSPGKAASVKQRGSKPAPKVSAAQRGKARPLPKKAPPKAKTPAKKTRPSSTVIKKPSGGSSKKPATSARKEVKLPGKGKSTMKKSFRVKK
UniProt P08238, whole entry, looked up: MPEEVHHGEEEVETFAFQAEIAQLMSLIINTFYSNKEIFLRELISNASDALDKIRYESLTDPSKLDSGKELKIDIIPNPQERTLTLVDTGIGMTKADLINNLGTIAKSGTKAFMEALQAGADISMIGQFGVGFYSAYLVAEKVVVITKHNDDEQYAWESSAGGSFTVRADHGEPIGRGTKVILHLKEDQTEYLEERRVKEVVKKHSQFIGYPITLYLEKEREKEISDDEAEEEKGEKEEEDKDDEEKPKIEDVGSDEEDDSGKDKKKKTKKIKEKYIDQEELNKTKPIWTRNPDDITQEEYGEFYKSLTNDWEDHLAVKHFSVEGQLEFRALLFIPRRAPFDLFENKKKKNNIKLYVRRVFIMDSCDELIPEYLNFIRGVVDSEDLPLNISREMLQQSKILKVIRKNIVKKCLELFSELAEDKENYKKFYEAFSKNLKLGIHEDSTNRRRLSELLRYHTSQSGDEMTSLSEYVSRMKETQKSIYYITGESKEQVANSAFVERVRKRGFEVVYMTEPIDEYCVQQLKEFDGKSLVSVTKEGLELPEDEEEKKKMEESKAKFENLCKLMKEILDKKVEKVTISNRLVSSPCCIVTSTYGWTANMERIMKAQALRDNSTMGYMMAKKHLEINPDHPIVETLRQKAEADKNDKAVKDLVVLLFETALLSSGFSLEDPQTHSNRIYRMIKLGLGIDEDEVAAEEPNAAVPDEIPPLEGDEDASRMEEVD
UniProt O14979: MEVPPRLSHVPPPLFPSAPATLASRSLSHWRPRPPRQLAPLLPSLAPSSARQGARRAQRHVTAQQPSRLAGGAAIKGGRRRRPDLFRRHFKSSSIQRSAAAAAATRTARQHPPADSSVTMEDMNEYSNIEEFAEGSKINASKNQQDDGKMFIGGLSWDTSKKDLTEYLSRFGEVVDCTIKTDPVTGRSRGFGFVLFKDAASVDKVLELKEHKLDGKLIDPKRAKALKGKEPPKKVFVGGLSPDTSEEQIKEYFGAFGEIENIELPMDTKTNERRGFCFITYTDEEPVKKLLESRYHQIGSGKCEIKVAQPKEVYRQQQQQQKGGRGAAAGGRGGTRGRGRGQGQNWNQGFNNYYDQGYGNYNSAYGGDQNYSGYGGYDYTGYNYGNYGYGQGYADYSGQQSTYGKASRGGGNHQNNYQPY
UniProt Q9NZL4: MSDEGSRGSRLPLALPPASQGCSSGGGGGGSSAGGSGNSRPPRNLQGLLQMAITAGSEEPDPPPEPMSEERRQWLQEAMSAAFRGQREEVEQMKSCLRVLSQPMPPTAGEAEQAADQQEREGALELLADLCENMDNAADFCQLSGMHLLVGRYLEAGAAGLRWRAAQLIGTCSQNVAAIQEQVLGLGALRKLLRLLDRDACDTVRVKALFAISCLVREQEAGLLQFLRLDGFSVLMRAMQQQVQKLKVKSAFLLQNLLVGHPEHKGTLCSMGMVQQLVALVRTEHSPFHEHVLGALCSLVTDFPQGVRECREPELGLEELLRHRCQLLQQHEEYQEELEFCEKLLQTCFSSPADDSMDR
UniProt Q92598: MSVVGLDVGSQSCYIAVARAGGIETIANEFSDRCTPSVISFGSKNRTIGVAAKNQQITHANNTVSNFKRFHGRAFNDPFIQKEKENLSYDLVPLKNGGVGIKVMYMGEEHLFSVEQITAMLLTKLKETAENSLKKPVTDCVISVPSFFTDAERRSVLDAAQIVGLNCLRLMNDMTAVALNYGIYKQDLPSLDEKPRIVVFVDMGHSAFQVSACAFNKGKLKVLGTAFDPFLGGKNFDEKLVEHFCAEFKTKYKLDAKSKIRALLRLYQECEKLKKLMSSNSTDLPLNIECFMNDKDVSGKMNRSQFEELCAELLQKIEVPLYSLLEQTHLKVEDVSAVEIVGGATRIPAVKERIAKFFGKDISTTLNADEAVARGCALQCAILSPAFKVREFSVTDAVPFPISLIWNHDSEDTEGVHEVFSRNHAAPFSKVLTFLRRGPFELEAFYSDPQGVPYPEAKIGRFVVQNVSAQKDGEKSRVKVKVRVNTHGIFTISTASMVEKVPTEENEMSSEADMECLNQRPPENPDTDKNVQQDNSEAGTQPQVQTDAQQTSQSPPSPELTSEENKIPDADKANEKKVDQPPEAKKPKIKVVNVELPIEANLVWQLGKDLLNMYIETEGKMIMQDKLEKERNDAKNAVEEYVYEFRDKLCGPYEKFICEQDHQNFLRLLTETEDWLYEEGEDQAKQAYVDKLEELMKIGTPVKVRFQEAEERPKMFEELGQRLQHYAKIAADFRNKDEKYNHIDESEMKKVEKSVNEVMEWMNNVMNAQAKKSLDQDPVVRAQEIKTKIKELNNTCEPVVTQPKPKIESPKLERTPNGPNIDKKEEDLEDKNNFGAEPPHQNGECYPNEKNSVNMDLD
UniProt P51659: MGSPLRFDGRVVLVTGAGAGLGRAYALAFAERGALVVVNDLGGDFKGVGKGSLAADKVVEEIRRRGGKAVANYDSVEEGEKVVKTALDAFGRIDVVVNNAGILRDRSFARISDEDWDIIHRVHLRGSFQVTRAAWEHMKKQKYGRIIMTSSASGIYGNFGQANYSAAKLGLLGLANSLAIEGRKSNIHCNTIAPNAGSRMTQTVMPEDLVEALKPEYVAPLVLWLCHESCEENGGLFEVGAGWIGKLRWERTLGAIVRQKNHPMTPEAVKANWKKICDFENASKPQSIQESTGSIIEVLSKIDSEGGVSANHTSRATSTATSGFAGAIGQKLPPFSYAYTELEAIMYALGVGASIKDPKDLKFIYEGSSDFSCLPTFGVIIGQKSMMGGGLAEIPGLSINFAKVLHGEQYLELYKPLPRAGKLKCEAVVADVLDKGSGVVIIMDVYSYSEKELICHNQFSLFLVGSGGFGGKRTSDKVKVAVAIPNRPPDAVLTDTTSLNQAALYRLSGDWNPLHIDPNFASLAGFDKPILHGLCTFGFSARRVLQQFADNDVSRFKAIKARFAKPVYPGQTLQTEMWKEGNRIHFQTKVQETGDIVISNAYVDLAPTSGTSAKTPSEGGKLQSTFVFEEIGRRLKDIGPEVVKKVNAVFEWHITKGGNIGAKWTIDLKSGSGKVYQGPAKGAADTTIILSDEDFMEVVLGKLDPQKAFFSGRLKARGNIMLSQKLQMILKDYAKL
UniProt Q9BUP3: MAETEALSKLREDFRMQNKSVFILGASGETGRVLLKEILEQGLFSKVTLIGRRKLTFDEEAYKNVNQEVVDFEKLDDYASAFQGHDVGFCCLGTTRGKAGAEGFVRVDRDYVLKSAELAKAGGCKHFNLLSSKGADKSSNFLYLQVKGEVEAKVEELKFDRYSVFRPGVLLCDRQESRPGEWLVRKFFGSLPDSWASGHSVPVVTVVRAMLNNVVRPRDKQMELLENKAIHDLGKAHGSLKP
UniProt O43719: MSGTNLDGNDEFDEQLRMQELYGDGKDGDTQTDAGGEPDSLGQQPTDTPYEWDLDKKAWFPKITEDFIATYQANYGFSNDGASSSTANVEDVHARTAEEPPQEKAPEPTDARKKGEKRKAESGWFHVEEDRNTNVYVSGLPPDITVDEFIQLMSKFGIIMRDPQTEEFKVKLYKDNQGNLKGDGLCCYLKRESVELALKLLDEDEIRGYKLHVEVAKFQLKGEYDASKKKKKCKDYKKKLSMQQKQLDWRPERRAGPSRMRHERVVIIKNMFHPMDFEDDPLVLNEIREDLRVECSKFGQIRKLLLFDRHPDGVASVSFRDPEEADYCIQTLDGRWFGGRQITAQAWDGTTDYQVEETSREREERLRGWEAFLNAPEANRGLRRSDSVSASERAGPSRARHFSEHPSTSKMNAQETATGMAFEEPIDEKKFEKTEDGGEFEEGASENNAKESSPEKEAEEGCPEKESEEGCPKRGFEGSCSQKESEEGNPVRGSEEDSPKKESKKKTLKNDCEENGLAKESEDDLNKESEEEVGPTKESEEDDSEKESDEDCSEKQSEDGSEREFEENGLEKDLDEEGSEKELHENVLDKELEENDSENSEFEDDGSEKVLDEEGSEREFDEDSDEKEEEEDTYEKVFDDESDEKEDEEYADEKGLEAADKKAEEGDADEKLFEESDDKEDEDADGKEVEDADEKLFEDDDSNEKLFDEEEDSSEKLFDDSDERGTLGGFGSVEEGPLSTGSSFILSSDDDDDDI
UniProt P22626: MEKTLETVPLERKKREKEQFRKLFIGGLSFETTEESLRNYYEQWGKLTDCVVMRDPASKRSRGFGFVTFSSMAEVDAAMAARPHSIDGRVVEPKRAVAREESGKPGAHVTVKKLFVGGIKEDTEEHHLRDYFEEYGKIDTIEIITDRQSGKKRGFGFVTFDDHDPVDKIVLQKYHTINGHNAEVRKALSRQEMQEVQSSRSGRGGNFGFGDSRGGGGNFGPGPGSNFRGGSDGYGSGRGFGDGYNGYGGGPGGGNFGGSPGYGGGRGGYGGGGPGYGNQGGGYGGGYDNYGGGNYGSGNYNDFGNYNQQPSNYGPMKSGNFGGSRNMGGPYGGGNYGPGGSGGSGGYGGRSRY
UniProt P52272: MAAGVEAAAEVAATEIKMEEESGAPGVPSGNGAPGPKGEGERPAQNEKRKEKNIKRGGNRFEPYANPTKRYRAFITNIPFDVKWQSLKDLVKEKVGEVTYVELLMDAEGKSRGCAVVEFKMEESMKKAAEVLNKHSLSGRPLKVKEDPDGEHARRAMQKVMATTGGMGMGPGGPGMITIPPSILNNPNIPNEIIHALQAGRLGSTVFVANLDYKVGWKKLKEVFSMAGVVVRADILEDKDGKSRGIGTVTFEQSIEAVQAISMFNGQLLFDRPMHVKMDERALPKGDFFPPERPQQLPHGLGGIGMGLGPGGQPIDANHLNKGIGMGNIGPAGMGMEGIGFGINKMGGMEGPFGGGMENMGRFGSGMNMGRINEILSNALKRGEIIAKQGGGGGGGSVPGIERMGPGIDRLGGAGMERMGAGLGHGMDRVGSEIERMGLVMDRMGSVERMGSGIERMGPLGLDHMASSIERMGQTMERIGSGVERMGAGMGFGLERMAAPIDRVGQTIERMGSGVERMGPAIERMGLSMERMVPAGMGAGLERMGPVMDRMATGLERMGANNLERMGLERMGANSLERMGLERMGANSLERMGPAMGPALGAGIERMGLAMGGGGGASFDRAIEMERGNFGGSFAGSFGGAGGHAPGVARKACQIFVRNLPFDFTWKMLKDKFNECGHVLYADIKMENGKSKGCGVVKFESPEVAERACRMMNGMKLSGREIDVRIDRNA

| Target | probe-labelled cysteine peptide fold change |
| --- | --- |
| HSPA4_P34932_779_ELTSTCSPIISKPKPK (UniProt P34932) | -0.494 |
| HNRNPUL2_Q1KMD3_538_NFILDQCNVYNSGQR (UniProt Q1KMD3) | 0.112 |
| HP1BP3_Q5SSJ5_359_TCSTTALK (UniProt Q5SSJ5) | -0.0802 |
| HSP90AB1_P08238_412_CLELFSELAEDK (UniProt P08238) | 0.0842 |
| HNRNPDL_O14979_277_RGFCFITYTDEEPVKK (UniProt O14979) | -0.0946 |
| HSPA4_P34932_34_CTPACISFGPK (UniProt P34932) | -0.0344 |
| HPCAL1_P37235_38_DCPTGHLTVDEFKK (UniProt P37235) | -0.0031 |
| HSPBP1_Q9NZL4_325_CQLLQQHEEYQEELEFCEK (UniProt Q9NZL4) | 0.0703 |
| HSPH1_Q92598_310_SQFEELCAELLQK (UniProt Q92598) | -0.14 |
| HSF1_Q00613_153_GKQECMDSK (UniProt Q00613) | -0.128 |
| HSD17B4_P51659_277_KICDFENASKPQSIQESTGSIIEVLSK (UniProt P51659) | -0.218 |
| HSPA4_P34932_167_SVMDATQIAGLNCLR (UniProt P34932) | 0.0494 |
| HNMT_P50135_31_FLNHSTEHQCMQEFMDKK (UniProt P50135) | -0.28 |
| HSPH1_Q92598_650_LCGPYEK (UniProt Q92598) | 0.12 |
| HSP90AB1_P08238_366_RVFIMDSCDELIPEYLNFIR (UniProt P08238) | 0.0207 |
| HMOX2_P30519_127_DMEYFFGENWEEQVQCPK (UniProt P30519) | 0.00744 |
| HTATIP2_Q9BUP3_172_YSVFRPGVLLCDR (UniProt Q9BUP3) | -7.7e-05 |
| HSD17B12_Q53GQ0_166_KMININILSVCK (UniProt Q53GQ0) | -0.272 |

Quoted at random: 2 records from the list.

| Target | probe-labelled cysteine peptide fold change |
| --- | --- |
| HNRNPUL2_Q1KMD3_538_NFILDQCNVYNSGQR (UniProt Q1KMD3) | 0.112 |
| HSP90AB1_P08238_412_CLELFSELAEDK (UniProt P08238) | 0.0842 |

(cont.)

| Target | probe-labelled cysteine peptide fold change |
| --- | --- |
| HNRNPLL_Q8WVV9_505_TLSGLLEWECK (UniProt Q8WVV9) | -0.00786 |
| HTATSF1_O43719_328_DPEEADYCIQTLDGR (UniProt O43719) | 0.141 |
| HNRNPA3_P51991_64_WGTLTDCVVMR (UniProt P51991) | -0.0572 |
| HOMEZ_Q8IX15_110_CGISWSSEEIEETR (UniProt Q8IX15) | 0.0249 |
| HPDL_Q96IR7_9_LCHIAFHVPAGQPLAR (UniProt Q96IR7) | 0.0898 |
| HNRNPA2B1_P22626_50_LTDCVVMR (UniProt P22626) | -0.114 |
| HTATSF1_O43719_462_EAEEGCPEK (UniProt O43719) | -0.285 |
| HNRNPM_P52272_676_DKFNECGHVLYADIK (UniProt P52272) | -0.474 |
| HNRNPM_P52272_114_GCAVVEFK (UniProt P52272) | 0.0453 |
| HNRNPU_Q00839_335_VCFEMK (UniProt Q00839) | 0.302 |
| HSPA2_P54652_191_GCAGGEK (UniProt P54652) | -0.123 |
| HNRNPUL2_Q1KMD3_408_NCVVELNFGQKEEPFFPPPEEFVFIHAVPVEER (UniProt Q1KMD3) | -0.0613 |
| HSDL2_Q6YN16_218_TAIHTAAMDMLGGPGIESQCR (UniProt Q6YN16) | -0.23 |
| HNRNPK_P61978_184_LFQECCPHSTDR (UniProt P61978) | -0.0203 |
| HSPA4_P34932_417_WNSPAEEGSSDCEVFSK (UniProt P34932) | -0.116 |
| HSD17B4_P51659_455_ELICHNQFSLFLVGSGGFGGKR (UniProt P51659) | -0.0518 |
| HMGXB3_Q12766_800_TCGLKPSTLK (UniProt Q12766) | -0.181 |
| HSD17B4_P51659_373_FIYEGSSDFSCLPTFGVIIGQK (UniProt P51659) | 0.054 |

Source: the supplement of paper PMC12067093, “Discovery and optimisation of a covalent ligand for TRIM25 and its application to targeted protein ubiquitination” (Chemical Science, 2025)
